Some entries share one result that the patent states for a list of compounds. For part of these data: At least one structure is not confirmed: it was looked up by name or label, or the drawing left a doubt.
What was measured:
[1] = tested on: anti-penicillin antibodies [Pen-9]; experiment: Compound microarray, detection of immobilized compound with anti-penicillin antibodies [Pen-9]; type: binding, mouse; conditions: compound 0.5 mM mixed with HSA 0.1 micrograms/microliter, printed on glass slide
[2] = tested on: anti-amoxicillin antibodies; experiment: Compound microarray, detection of immobilized compound with anti-amoxicillin antibodies; type: binding, mouse; conditions: for signal (Red Intensity): compound 0.5 mM mixed with HSA 0.1 micrograms/microliter, printed on glass slide
Protocol: (§1) Further, compounds of bovine serum albumin (BSA) covalently bonded to these 14 compounds in advance (Imgen BioSciences) were printed on glass slides as control samples for comparison. The compounds mixed with HSA were each dissolved in solution A for protein microarrays only (Fukushima Protein Factory) to a concentration of 0.5 mM. Furthermore, HSA was prepared and mixed with the solutions A including the compounds, bringing the final concentrations to 0.1 micrograms/microliter. It should be noted that the printing of each compound on a glass slide was performed by spotting microdroplets of approximately 2 to 4 nl on the glass slide by using an ultratrace dispensing system (Micro Diagnostic).
(§2) The compound microarrays printed with the compounds were immersed in ethanol and shaken for 30 seconds at room temperature. Subsequently, the compound microarrays were immersed in ultrapure water and shaken for 30 seconds at 26° C. It should be noted that the shaking by ultrapure water was performed twice. For solution replacement, the compound microarrays were immersed in solution A for protein microarrays only (Fukushima Protein Factory, Fukushima, Japan) and shaken for about five minutes at 26° C.
The compound microarrays treated as described above were immersed in Blocking One (Nacalai Tesque, Kyoto, Japan) and shaken for one hour at 26° C. Subsequently, the compound microarrays were immersed in solution A for protein microarrays only and shaken for about five minutes at 26° C.
Using a solution obtained by adding 1/4000 volume of Goat Reference Antibody Mixture I (Fukushima Protein Factory) to the primary antibody diluent for protein microarrays only (Fukushima Protein Factory), one of eight mouse monoclonal anti-compound antibodies (Table 2) was diluted to 1 microgram/milliliter.
Two milliliters of the solution with the diluted primary antibody were added to a P-DE1 cassette for protein microarrays (Fukushima Protein Factory). […]

[3] = tested on: anti-penicillin antibodies; experiment: Compound microarray, detection with anti-penicillin antibodies (Examples 3 and 4, clone not stated); type: binding; conditions: compound 0.5 mM mixed with each immobilizing protein or HSA (0.1 micrograms/microliter); strong only with this antibody
[4] = tested on: anti-gentamycin antibodies; experiment: Compound microarray, detection of immobilized compound with anti-gentamycin antibodies; type: binding, mouse; conditions: compound 0.5 mM mixed with HSA 0.1 micrograms/microliter, printed on glass slide
Protocol: as §1, §2
The compound microarrays treated as described above were immersed in Blocking One (Nacalai Tesque, Kyoto, Japan) and shaken for one hour at 26° C. […]

| Compound | signal (Red Intensity) [1] | signal (Red Intensity) [2] | signal (red intensity) [3] | other results |
| --- | --- | --- | --- | --- |
| CC1(C)S[C@@H]2[C@H](NC(=O)[C@H](N)c3ccc(O)cc3)C(=O)N2[C@H]1C(=O)O [amoxicillin] | strong signal (strong signals (red intensity of 2000 or greater; the same below)) | strong signal (strong signals (red intensity of 2000 or greater; the same below)) | – | signal (red intensity) ([2]; compound 0.5 mM mixed with each immobilizing protein or HSA (0.1 micrograms/microliter), strong only with this antibody): strong signal (strong signals (red intensity of 2000 or greater; the same below)) |
| CC1(C)S[C@@H]2[C@H](NC(=O)[C@H](N)c3ccccc3)C(=O)N2[C@H]1C(=O)O [ampicillin] | strong signal (strong signals (red intensity of 2000 or greater; the same below)) | strong signal (strong signals (red intensity of 2000 or greater; the same below)) | – | – |
| CC1(C)S[C@@H]2[C@H](NC(=O)Cc3ccccc3)C(=O)N2[C@H]1C(=O)O [benzyl penicillin potassium] | – | – | strong signal (strong signals (red intensity of 2000 or greater; the same below)) | – |
| CC1(C)S[C@@H]2[C@H](NC(=O)Cc3ccccc3)C(=O)N2[C@H]1C(=O)[O-].[Na+] [penicillin G sodium] | – | – | strong signal (strong signals (red intensity of 2000 or greater; the same below)) | – |
| CC1(C)S[C@@H]2[C@H](NC(=O)Cc3ccccc3)C(=O)N2[C@H]1C(=O)O [penicillin G] | strong signal (strong signals (red intensity of 2000 or greater; the same below)) | – | – | – |
| gentamicin [gentamycin] | – | – | – | signal (Red Intensity) [4]: strong signal (strong signals (red intensity of 2000 or greater; the same below)) |

From US20230194511A1, “Compound Fixing Method, Detection Method, Screening Method, Substrate Used in Same, Compound Fixing Agent, and Fixing Kit” (priority 2020, published 2023)
